For at least one compound, name, drawing or mass did not settle the structure.
How the values were obtained:
Mpl32D cells = assay: Culture with TPO receptor agonists as TPO replacements, with albumin or PVA; type: cell-based, human; details: 0.1 μM butyzamide, 3 μg/mL eltrombopag, 3 μM avatrombopag
Protocol: Subsequently, whether or not TPO can be replaced with a TPO receptor agonist in culture of human hematopoietic stem cells was examined. Butyzamide, eltrombopag, and avatrombopag are known as TPO receptor agonists. Human hematopoietic stem cells were cultured in the presence of 0.1% recombinant human serum albumin (Albumin Biosciences) or in the presence of PVA in the above-mentioned culture medium having a composition from which TPO was removed and to which 0.1 μM butyzamide, 3 μg/mL eltrombopag, or 3 μM avatrombopag was added. In this experiment, Mpl32D cells were used as human hematopoietic stem cells.

human CD34+ cells = assay: Culture of human bone marrow or umbilical cord blood CD34+ cells in PVA medium, proliferation rate by cell count and flow cytometry; details: no albumin, TPO replaced with TPO receptor agonist

Which results are given for `CC1=NN(c2ccc(C)c(C)c2)C(=O)/C1=N\Nc1cccc(-c2cccc(C(=O)O)c2)c1O` [eltrombopag]?
proliferation (change with time in number of cells) (Mpl32D cells; 0.1% recombinant human serum albumin, no TPO): could support proliferation; proliferation (change with time in number of cells) (Mpl32D cells; PVA, no albumin): substantially no such effect; ratio of number of cells at day 7 relative to first day of culture (human CD34+ cells): Death of hematopoietic stem cells occurred

From patent publication US12674139B2, “Serum-free medium not containing albumin and suited for culturing human hematopoietic stem cells, and albumin-free culturing method” (The University of Tokyo, priority 2019, dated 2026)
